Hit rate of the full screen: of about 320,000 compounds, about 480 (0.15%) were called active. The shares of active, inactive and inconclusive entries below differ from those in the screen. Rule as the data show it: active = inhibition above about 26% (passing the limit was not always enough); inconclusive = no clear call, values can overlap the other calls.
Each compound was assayed against Histone deacetylase 3 (Homo sapiens) (UniProt O15379) (assay: HDAC3 deacetylase inhibitors, primary screen, biochemical, fluorescence, cell-free homogeneous (AID 2718)). Details: recombinant HDAC3, fluorogenic peptide/trypsin coupled, at 8.3 µM, stronger effect = higher value.

Protein sequences, listed by entry. Tags and fused reporters are not part of them.
UniProt O15379, whole entry, looked up: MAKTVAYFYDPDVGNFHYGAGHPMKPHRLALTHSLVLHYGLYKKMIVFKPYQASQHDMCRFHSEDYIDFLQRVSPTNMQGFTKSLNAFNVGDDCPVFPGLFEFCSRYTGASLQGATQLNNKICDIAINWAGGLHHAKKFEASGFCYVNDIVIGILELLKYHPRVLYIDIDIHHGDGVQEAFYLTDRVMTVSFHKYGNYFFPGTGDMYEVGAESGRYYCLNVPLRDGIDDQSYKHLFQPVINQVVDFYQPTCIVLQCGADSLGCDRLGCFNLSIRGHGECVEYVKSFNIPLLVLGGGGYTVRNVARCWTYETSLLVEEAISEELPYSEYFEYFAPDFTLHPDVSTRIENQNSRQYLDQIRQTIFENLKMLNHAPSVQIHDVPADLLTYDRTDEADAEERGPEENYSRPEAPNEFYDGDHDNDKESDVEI

Row | Compound | inhibition
1 | O=C(CN1C(=O)c2cccnc2Oc2ccc(Cl)cc21)N1CCOCC1 | inconclusive: 15.8%
2 | O=C(O)c1cc(N2C(=O)C3C4C=CC(C4)C3C2=O)ccc1N1CCOCC1 (centres undefined) | inactive: 3.66%
3 | CCC1Oc2ccc(C)cc2N(CC(=O)NCCCN2CCOCC2)C1=O (centres undefined) | inconclusive: 19.3%
4 | COc1ccc(O)c(/C=N/NC(=O)c2cc(=O)[nH]c3ccccc23)c1 | inactive: 12.4%
5 | CCc1nnc2n1N=C(c1ccc(Br)cc1)CS2 | inactive: 0.654%
6 | NCCc1ccc(O)c(O)c1 | inactive: -1.66%
7 | O=C(NCc1ccco1)C1CCCN1C(=O)Nc1ccccc1 (centres undefined) | inconclusive: 19.5%
8 | CCOC(=O)C1CCN(C(=O)c2ccc(CNS(=O)(=O)c3ccc(C)cc3)cc2)CC1 | inconclusive: 21.8%
9 | Cc1sc2nc(CN3CCCCC3)nc(Cl)c2c1C | inactive: -3.23%
10 | CCOc1ccc(CN2CCN(Cc3nc4c(s3)CCCC4)CC2CCO)cc1 (centres undefined) | inactive: -1.72%
11 | O=C(CN1CCC(C(=O)c2ccc(Cl)cc2)CC1)NC1CCCC1 | inconclusive: 13.4%
12 | CC[n+]1ccc(C[n+]2ccccc2)c2ccccc21 | inconclusive: 18.6%
13 | Cc1ccoc1C(=O)N1CCCCC1C(=O)O (centres undefined) | inconclusive: 16.4%
14 | O=C(NC(=S)Nc1ccc(Br)cc1)C1CCC1 | inactive: 0.131%
15 | Cc1nn(CCOc2ccc(Br)cc2)c(C)c1[N+](=O)[O-] | inconclusive: 14%
16 | O=C(NCCCNc1ccc(C(F)(F)F)cc1[N+](=O)[O-])c1ccc(F)cc1 | inconclusive: 15.1%
17 | CCNC(=O)N1c2ccc(OCC)cc2C(C)=CC1(C)C | inconclusive: 13.7%
18 | COc1cc(/C=C/C(=O)c2c(O)cc(C)oc2=O)cc(OC)c1O | inactive: 8.09%
19 | CC(=O)OC1CSc2nc3ccccc3n2C1 (centres undefined) | inconclusive: 19.9%
20 | O=C(c1ccc2c(=O)n(Cc3ccc(Cl)cc3)c(=S)[nH]c2c1)N1CCOCC1 | inconclusive: 17.1%
21 | N#Cc1cnn2c(-c3ccccc3)ccnc12 | inactive: -35.2%
22 | CCOC(=O)NC(O)C(=O)c1cccs1 (centres undefined) | inactive: 1.36%
23 | O=C(NC1CCCCCC1)C1CCCN1S(=O)(=O)c1cccc2cccnc12 (centres undefined) | inactive: 4.87%

Row | Compound | inhibition
24 | CN(C)CCCNc1c2c(nc3cc(-c4cccc(F)c4)nn13)CCC2 | inactive: -4.61%
25 | CCn1c(SCc2nc3cc(OC)c(OC)cc3c(=O)[nH]2)nnc1-c1ccncc1 | inconclusive: 25.5%
26 | O=C(O)CN1C(=O)/C(=C\c2cc(Br)ccc2OCc2ccccc2F)SC1=S | inactive: 5.57%
27 | Cc1ccccc1C(=O)N1CCN(c2ccc([N+](=O)[O-])c(NCc3cccnc3)c2)CC1 | inconclusive: 20.8%
28 | Cc1ccc2c(c1)[C@@H]1[C@H](CO2)[C@H](c2ccccc2)[C@@]2(C)C(=O)N[C@H](C)C(=O)N12 | inconclusive: 8.29%
29 | COC(=O)[C@H](Cc1ccccc1)NC(=O)C1CCN(C(=O)[C@H](C)NS(=O)(=O)c2ccc(C)cc2)CC1 | inconclusive: 21.8%
30 | CSC1=C(C#N)C(c2ccc(C)cc2)C2=C(CCCC2=O)N1 (centres undefined) | inconclusive: 19.4%
31 | CN1CCN(C(=O)c2cnn(-c3ccccc3)c2NC(=O)c2cccs2)CC1 | inconclusive: 18.4%
32 | CC(OC(=O)c1cc2sccc2n1C)C(=O)NCc1cccs1 (centres undefined) | inconclusive: 12.9%
33 | C/C(=N\NS(=O)(=O)c1ccc(Cl)cc1)c1ccc(O)cc1 | inactive: 2.06%
34 | CCN1CCCC1CNC(=O)c1ccc(N2CCCC2=O)cc1 (centres undefined) | inconclusive: 11.7%
35 | CCc1ccccc1NC(=O)/C(=C/c1ccco1)c1ccccc1 | inactive: 12.5%
36 | OCCN(CCO)c1ccc(C(c2ccc(Cl)cc2)c2ccc(N(CCO)CCO)cc2Cl)c(Cl)c1 | inactive: 3.43%
37 | CCOc1ccccc1/C=C(/NC(=O)c1ccccc1)C(=O)NCC(=O)O | inconclusive: 33.2%
38 | CCn1c(N2CCN(C(=O)Nc3ccc(F)cc3)CC2)nc2ccccc21 | inconclusive: 11.8%
39 | CC(C)(C)c1ccc(C(=O)Nc2cccc3ncccc23)cc1 | inactive: 2.71%
40 | Cc1c(C)c2ccc(OC(C)C(=O)NCCN3CCOCC3)c(C)c2oc1=O (centres undefined) | inactive: -23.5%
41 | O=C(CNC(=O)c1cccs1)NCC(=O)OCc1ccc(Cl)cc1 | inconclusive: 17.7%
42 | COc1ccc(Nc2nc(-c3ccccc3O)nc3ccccc23)cc1 | inconclusive: 13.8%
43 | CCC(CC)NC(=O)CSc1ccc(S(=O)(=O)N2CCOCC2)cn1 | inactive: -2.46%
44 | Cc1ccnc(NC(=O)CN2C(=O)c3ccccc3C2=O)c1 | inconclusive: 20.8%
45 | O=C(/C=C/c1cccs1)N1CCC2(CC1)Oc1ccc(F)cc1C(=O)C21CC(c2ccccc2)=NO1 (centres undefined) | inactive: -2.24%
46 | S=C(NCc1ccc2c(c1)OCO2)Nc1ccc(-c2nc3ccccc3[nH]2)cc1 | inconclusive: 18.5%

Row | Compound | inhibition
47 | CCn1cc(S(=O)(=O)c2ccc(Cl)cc2)c(=O)c2cc(OC)ccc21 | inconclusive: 21.1%
48 | COc1ccc2[nH]c(=O)c(CN(C)C(=O)c3ccncc3)cc2c1 | inconclusive: 12.8%
49 | O=C1Nc2cc(Cl)c(Cl)cc2N(O)N1c1ccc(Cl)cc1 | inconclusive: 17.7%
50 | Cc1c(C)n(CCc2ccccc2)c2ncnc(NCCCN(C)C)c12 | inconclusive: 18.2%
51 | COC(=O)C1=NNC2(c3ccc(C)cc3)C(=O)N(c3ccc(C)cc3)C(=O)C12 (centres undefined) | inconclusive: 40.4%
52 | CC1CCCCN1C(=O)CSc1nc2ncccc2[nH]1 (centres undefined) | inconclusive: 17.5%
53 | COc1cccc(C(=O)N2CCSC2=S)c1 | active: 36.8%
54 | CC(C)(C)C(=O)N1CCN(c2c(Cl)cccc2[N+](=O)[O-])CC1 | inconclusive: 18.4%
55 | COCCN=c1scc(-c2cc(OC)ccc2OC)n1/N=C/c1c[nH]c2ccccc12 | inconclusive: 22.7%
56 | Cc1ccc(NCc2nnc(SCC(=O)c3ccc4c(c3)OCCO4)o2)c(C)c1 | active: 84.9%
57 | O=C(O)CCC(=O)Nc1ccc(-c2nc3ccc(C(=O)c4ccccc4)cc3[nH]2)cc1 | inactive: 0.85%
58 | CN(NS(C)(=O)=O)c1ncc(C(F)(F)F)cc1Cl | inconclusive: 13%
59 | NC(=O)CC(NC(=O)Cc1ccc(Cl)cc1)c1ccc(NCc2ccccc2)c([N+](=O)[O-])c1 (centres undefined) | inconclusive: 26.6%
60 | CSCCC(NC(=O)c1ccco1)C(=O)OCc1cc([N+](=O)[O-])cc2c1OCOC2 (centres undefined) | inconclusive: 16.3%
61 | O=C1c2ccccc2C(=O)N1OS(=O)(=O)c1ccc(F)cc1 | inconclusive: 27.9%
62 | O=C(COc1ccc(-n2ccnc2)cc1)Nc1cccc(F)c1 | inactive: -0.356%
63 | CCCC(=O)n1nc(-c2ccco2)nc1N | active: 40.3%
64 | C[C@@H](C(=O)Nc1nc2ccccc2s1)N1C(=O)C2CC=CCC2C1=O (some centres undefined) | inactive: 3.58%
65 | Cc1ccc(C2=NN=C(NC(=O)CSc3nnc4c5ccccc5n(C)c4n3)SC2)cc1 | inconclusive: 25.4%
66 | CCC(=O)Nc1ccc(C=C(C(C)=O)C(C)=O)cc1 | inconclusive: 13.6%
67 | O=C(O)CNC(=O)CCN1C(=O)c2ccccc2C1=O | inconclusive: 30.7%
68 | NC(CC(=O)OC1CCCCC1)C(=O)OC1CCCCC1 (centres undefined) | inconclusive: 21.1%
69 | CCc1cccc(N=c2c([N+](=O)[O-])nn(-c3ccc4c(c3)OCCO4)n2O)c1 | inconclusive: 18%

Row | Compound | inhibition
70 | NC(=O)CSc1nc2ccccc2c(=O)n1Cc1ccco1 | inactive: 0.137%
71 | Cc1ccc(C)c(NC(=S)NC(NC(=O)Cc2ccccc2)C(Cl)(Cl)Cl)c1 (centres undefined) | inconclusive: 14%
72 | Cc1ccc(S(=O)(=O)Oc2ccc(/C=C(/NC(=O)c3ccccc3)C(=O)O)cc2)cc1 | inactive: 3.04%
73 | O=C(C[C@H]1C/C=C\CCC(=O)OC[C@H]2CCCN2C1=O)NCCO | inconclusive: 16%
74 | COC(=O)c1ccc(-c2nc3cc(Cl)c(N)cc3s2)cc1 | inactive: 0.227%
75 | CCN(CC)c1ccc(NC(=O)CN2C(=O)CC(C)(C)S(=O)(=O)c3ccccc32)c(C)c1 | inactive: -1.78%
76 | O=C(CN(C(=O)c1csnn1)c1ccc(F)c(Cl)c1)NCc1ccc2c(c1)OCO2 | inactive: 1.87%
77 | NC(=O)c1ccc(NC(=O)CC23CC4CC(CC(Br)(C4)C2)C3)cc1 | inconclusive: 24.2%
78 | O=C(NCCCN1CCCC1=O)C(=O)NCC1OCCN1S(=O)(=O)c1ccc(Br)cc1 (centres undefined) | inconclusive: 22.9%
79 | COc1ccc(S(=O)(=O)N2CCN(c3nn(C)c(=O)n(C)c3=O)CC2)cc1 | inconclusive: 20.9%
80 | COc1ccccc1CNC(=O)c1cc(-c2ccccc2)nn1CC1CC(c2cccnc2)=NO1 (centres undefined) | inactive: 4.02%
81 | Cc1ccc(SCc2nc(N)nc(Nc3ccccc3C)n2)c(C)c1 | inconclusive: 35.6%
82 | CCOc1ccc(C2N(c3cc(C)on3)C(=O)C3CCCN32)cc1OC (centres undefined) | inconclusive: 15.1%
83 | Cc1cc(C)n(CCC(=O)N/N=C/c2ccc(O)cc2)n1 | inactive: 7.38%
84 | Brc1cccc(CN2CCCCCCC2)c1 | inconclusive: 16.6%
85 | COc1ccc2[nH]cc(CCNC(=O)C3CCCO3)c2c1 (centres undefined) | inconclusive: 20.4%
86 | COc1ccc(CN2CCNC(=O)C2CC(=O)NCc2cn[nH]c2-c2ccccc2)c(F)c1 (centres undefined) | inconclusive: 15.3%
87 | CC(C)(C)OC(=O)N[C@@H](Cc1ccccc1)c1nnc(S(=O)(=O)Cc2cccc(F)c2)o1 | active: 69.2%
88 | COc1ccc(/C(O)=C2/C(=O)C(=O)N(c3ccccn3)C2c2ccc(OC)c(OC)c2)cc1 (centres undefined) | inactive: 0.204%
89 | COc1ccccc1OCCCCn1ncc2ccc(OC)c(OC)c2c1=O | inactive: -1.44%

17 compounds out of the list, arranged by heavy-atom count, rising.
Row | Compound | inhibition
22 | CCOC(=O)NC(O)C(=O)c1cccs1 (centres undefined) | inactive: 1.36%
63 | CCCC(=O)n1nc(-c2ccco2)nc1N | active: 40.3%
13 | Cc1ccoc1C(=O)N1CCCCC1C(=O)O (centres undefined) | inconclusive: 16.4%
12 | CC[n+]1ccc(C[n+]2ccccc2)c2ccccc21 | inconclusive: 18.6%
67 | O=C(O)CNC(=O)CCN1C(=O)c2ccccc2C1=O | inconclusive: 30.7%
33 | C/C(=N\NS(=O)(=O)c1ccc(Cl)cc1)c1ccc(O)cc1 | inactive: 2.06%
70 | NC(=O)CSc1nc2ccccc2c(=O)n1Cc1ccco1 | inactive: 0.137%
39 | CC(C)(C)c1ccc(C(=O)Nc2cccc3ncccc23)cc1 | inactive: 2.71%
35 | CCc1ccccc1NC(=O)/C(=C/c1ccco1)c1ccccc1 | inactive: 12.5%
82 | CCOc1ccc(C2N(c3cc(C)on3)C(=O)C3CCCN32)cc1OC (centres undefined) | inconclusive: 15.1%
3 | CCC1Oc2ccc(C)cc2N(CC(=O)NCCCN2CCOCC2)C1=O (centres undefined) | inconclusive: 19.3%
51 | COC(=O)C1=NNC2(c3ccc(C)cc3)C(=O)N(c3ccc(C)cc3)C(=O)C12 (centres undefined) | inconclusive: 40.4%
46 | S=C(NCc1ccc2c(c1)OCO2)Nc1ccc(-c2nc3ccccc3[nH]2)cc1 | inconclusive: 18.5%
76 | O=C(CN(C(=O)c1csnn1)c1ccc(F)c(Cl)c1)NCc1ccc2c(c1)OCO2 | inactive: 1.87%
8 | CCOC(=O)C1CCN(C(=O)c2ccc(CNS(=O)(=O)c3ccc(C)cc3)cc2)CC1 | inconclusive: 21.8%
65 | Cc1ccc(C2=NN=C(NC(=O)CSc3nnc4c5ccccc5n(C)c4n3)SC2)cc1 | inconclusive: 25.4%
45 | O=C(/C=C/c1cccs1)N1CCC2(CC1)Oc1ccc(F)cc1C(=O)C21CC(c2ccccc2)=NO1 (centres undefined) | inactive: -2.24%

Reference: PubChem BioAssay AID2718 (Broad Institute, 2010)
